From article PMC10158624
Results are given in words; binding and its absence hold for the method and conditions named. In cells and extracts the contact can be indirect. These calls come from enrichment with a bait or labelling near it, and not all partners need be listed. Tags and fused reporters may be left off the sequences shown.

Chains of the proteins cited; added tags and fusions are not shown.
UniProt Q13283: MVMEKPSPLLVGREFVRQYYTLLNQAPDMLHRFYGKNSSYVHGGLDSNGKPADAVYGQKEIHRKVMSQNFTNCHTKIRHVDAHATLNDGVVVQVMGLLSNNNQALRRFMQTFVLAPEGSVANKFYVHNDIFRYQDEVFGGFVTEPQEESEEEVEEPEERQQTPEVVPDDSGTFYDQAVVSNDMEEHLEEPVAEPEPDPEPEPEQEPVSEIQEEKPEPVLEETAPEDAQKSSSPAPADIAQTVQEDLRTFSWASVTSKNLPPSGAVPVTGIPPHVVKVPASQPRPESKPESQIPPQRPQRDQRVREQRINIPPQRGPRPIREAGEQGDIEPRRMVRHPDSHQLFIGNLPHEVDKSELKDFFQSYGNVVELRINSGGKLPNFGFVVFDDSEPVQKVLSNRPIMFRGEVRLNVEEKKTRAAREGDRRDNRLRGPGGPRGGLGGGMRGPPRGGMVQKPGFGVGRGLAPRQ
UniProt Q9UPQ9: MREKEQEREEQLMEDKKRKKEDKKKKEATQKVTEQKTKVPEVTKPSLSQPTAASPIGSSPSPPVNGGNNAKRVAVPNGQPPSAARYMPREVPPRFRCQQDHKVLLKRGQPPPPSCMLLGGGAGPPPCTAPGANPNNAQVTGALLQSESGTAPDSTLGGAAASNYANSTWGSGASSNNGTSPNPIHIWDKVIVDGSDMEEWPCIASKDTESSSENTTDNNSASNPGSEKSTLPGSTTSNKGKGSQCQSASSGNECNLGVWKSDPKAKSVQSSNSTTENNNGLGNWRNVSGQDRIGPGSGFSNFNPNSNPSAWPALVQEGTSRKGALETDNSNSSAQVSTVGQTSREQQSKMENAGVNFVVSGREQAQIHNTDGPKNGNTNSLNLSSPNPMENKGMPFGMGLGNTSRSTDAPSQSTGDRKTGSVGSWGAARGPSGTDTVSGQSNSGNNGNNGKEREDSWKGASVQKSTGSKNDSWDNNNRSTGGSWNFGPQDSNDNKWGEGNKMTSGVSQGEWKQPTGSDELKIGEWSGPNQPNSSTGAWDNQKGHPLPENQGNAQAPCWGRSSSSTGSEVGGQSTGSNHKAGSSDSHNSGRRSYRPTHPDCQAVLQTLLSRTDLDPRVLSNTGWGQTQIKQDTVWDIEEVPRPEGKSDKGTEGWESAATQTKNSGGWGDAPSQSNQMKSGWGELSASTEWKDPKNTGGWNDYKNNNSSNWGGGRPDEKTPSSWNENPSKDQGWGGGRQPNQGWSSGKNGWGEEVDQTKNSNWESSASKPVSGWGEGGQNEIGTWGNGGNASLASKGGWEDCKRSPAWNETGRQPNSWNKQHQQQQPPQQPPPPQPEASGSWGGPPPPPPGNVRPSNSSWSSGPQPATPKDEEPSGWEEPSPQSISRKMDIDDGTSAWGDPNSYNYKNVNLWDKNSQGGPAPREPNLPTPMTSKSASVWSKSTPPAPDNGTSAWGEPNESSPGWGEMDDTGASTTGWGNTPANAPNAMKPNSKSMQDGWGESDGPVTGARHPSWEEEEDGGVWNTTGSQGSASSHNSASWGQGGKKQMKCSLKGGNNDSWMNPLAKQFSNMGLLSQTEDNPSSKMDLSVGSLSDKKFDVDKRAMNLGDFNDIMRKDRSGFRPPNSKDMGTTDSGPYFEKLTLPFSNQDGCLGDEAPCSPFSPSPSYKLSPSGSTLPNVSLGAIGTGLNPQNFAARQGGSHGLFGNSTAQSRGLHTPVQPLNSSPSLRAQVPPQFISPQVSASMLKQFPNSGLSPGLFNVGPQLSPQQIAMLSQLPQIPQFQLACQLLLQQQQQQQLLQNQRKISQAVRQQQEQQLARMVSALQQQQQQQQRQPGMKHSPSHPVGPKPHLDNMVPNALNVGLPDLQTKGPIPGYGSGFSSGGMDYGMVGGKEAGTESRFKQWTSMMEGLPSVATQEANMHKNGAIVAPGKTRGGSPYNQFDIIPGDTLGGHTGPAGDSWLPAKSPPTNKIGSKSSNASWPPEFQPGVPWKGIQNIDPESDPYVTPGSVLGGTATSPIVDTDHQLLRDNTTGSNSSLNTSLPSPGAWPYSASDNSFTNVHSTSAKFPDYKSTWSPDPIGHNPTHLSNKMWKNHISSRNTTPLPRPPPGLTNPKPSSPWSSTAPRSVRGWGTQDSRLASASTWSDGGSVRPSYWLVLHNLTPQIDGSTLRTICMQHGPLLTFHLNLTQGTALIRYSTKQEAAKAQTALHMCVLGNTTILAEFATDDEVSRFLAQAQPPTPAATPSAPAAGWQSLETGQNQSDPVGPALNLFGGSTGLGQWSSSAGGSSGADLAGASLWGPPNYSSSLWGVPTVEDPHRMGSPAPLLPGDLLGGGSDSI
UniProt O00571: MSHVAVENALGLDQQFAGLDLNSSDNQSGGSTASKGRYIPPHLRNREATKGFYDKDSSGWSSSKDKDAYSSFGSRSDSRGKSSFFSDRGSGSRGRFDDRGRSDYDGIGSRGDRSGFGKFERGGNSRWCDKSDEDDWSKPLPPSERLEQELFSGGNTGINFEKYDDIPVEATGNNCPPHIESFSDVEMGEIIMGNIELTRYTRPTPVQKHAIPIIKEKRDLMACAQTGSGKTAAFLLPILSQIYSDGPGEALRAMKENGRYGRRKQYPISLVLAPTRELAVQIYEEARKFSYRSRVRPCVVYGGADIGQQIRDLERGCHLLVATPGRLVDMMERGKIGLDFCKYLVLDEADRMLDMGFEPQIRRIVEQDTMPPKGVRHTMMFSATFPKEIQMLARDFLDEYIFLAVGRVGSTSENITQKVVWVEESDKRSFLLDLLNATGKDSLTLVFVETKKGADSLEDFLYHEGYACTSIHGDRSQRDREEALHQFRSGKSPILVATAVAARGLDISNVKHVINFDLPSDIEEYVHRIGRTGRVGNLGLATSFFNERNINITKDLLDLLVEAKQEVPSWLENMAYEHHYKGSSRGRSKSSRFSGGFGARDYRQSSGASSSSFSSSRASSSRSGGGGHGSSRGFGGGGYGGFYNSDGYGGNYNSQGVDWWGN
UniProt Q9Y520: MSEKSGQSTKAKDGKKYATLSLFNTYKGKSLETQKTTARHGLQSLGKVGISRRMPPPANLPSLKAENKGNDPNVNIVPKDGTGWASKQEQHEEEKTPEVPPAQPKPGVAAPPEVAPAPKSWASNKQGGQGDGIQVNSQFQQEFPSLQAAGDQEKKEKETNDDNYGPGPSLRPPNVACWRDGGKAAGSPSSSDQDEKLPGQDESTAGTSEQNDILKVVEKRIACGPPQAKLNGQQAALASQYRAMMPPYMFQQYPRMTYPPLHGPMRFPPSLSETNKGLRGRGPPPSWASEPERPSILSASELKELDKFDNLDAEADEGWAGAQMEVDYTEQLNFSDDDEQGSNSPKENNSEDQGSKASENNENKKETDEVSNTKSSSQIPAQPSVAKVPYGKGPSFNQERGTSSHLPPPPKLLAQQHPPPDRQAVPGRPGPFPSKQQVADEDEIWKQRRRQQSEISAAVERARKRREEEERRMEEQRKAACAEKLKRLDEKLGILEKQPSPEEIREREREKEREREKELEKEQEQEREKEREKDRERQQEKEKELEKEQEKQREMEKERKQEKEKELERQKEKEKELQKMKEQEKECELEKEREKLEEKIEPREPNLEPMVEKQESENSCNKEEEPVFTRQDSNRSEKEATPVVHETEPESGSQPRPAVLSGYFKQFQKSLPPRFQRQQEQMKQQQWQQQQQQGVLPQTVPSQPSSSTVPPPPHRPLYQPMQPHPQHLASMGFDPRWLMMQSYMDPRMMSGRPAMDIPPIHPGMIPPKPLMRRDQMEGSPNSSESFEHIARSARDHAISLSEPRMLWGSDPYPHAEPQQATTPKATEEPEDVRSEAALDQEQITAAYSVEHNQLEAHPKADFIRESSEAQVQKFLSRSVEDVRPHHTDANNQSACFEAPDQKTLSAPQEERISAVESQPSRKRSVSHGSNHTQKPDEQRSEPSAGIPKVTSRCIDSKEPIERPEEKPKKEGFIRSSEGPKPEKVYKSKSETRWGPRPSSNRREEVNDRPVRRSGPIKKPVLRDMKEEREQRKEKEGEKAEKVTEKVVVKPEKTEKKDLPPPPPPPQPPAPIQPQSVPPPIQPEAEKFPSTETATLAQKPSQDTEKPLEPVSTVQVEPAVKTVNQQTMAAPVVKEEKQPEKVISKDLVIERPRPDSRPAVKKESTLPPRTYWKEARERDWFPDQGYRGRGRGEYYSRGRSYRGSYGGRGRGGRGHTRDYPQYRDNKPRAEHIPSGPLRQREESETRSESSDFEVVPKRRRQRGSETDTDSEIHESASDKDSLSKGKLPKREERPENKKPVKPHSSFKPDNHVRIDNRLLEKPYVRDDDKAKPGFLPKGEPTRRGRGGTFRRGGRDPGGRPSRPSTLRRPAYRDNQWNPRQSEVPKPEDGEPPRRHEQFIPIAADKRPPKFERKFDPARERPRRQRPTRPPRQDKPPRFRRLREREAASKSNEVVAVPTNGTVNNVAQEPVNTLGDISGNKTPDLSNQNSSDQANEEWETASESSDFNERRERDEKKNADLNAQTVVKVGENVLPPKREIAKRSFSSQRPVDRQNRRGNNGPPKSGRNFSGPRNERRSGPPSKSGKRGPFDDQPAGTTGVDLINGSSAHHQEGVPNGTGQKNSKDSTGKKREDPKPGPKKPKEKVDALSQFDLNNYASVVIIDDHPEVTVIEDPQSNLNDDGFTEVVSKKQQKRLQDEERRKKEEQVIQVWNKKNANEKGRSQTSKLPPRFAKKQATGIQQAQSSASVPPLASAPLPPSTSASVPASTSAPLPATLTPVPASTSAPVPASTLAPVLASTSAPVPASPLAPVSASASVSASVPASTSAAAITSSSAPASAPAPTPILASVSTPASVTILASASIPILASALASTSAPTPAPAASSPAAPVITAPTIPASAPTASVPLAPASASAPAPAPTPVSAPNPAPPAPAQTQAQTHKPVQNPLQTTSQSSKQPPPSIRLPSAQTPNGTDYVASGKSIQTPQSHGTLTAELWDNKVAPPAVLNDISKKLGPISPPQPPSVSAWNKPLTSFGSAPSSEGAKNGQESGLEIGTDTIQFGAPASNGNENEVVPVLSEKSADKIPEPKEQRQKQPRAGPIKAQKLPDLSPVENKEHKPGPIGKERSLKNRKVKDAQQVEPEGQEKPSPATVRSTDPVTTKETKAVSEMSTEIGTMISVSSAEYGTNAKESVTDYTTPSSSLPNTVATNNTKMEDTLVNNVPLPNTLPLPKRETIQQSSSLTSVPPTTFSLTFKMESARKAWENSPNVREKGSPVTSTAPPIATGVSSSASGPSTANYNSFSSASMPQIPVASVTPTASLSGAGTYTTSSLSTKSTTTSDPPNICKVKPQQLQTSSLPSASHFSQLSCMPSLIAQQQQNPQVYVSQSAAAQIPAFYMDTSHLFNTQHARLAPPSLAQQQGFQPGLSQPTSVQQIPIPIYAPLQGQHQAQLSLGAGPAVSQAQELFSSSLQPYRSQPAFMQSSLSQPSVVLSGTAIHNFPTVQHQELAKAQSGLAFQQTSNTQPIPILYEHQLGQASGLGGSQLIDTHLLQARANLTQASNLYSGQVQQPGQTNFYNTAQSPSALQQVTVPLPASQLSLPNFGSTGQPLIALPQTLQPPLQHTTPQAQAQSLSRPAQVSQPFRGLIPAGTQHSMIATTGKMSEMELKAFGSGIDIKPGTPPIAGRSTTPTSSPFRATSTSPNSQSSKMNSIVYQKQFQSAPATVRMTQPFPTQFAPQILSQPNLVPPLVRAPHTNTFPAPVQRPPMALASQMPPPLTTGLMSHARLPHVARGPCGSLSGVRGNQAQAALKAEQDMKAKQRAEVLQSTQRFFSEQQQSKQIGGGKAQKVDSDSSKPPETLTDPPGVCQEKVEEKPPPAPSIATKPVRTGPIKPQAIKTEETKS

T1: Snd1-BioID2 fusion (full-length mouse Snd1 fused to C-terminal BioID2, HA tag) (mouse) (UniProt Q78PY7)
T1 sequence: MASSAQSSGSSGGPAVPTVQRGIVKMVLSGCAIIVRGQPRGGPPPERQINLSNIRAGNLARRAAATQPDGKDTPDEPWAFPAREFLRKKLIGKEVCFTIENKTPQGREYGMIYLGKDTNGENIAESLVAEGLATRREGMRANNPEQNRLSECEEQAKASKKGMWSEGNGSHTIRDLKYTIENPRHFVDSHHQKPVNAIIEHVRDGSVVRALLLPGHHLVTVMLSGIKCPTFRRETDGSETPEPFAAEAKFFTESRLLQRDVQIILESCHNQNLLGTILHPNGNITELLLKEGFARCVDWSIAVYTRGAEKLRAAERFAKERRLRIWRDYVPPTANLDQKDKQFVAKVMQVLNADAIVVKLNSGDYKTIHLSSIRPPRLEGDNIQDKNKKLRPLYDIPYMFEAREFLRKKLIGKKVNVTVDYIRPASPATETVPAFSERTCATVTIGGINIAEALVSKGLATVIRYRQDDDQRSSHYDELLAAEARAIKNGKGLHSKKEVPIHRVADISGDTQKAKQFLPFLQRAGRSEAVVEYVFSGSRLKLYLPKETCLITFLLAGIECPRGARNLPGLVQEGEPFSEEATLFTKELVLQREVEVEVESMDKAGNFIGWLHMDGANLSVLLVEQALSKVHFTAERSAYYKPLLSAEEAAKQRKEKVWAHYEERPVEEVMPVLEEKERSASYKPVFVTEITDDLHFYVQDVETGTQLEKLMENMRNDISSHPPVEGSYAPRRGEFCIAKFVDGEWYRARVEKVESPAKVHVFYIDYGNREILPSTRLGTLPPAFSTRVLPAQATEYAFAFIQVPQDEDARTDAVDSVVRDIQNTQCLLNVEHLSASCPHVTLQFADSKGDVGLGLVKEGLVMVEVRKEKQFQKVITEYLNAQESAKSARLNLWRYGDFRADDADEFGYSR


These molecules were tested against T1, Snd1-BioID2 fusion (full-length mouse Snd1 fused to C-terminal BioID2, HA tag) (mouse) (assay: proximity labelling; BioID2: Snd1-BioID2-HA transiently expressed in HEK-293T, 10 uM biotin; non-stressed, heat shock (42°C, 12 h) or hypoxia (2% oxygen, 12 h); lysis in RIPA-500, biotinylated proteins captured on streptavidin-agarose, on-bead digestion, LC-ESI-MS/MS; proteins also found with empty BioID2 excluded).

| Molecule | binding |
| --- | --- |
| EIF3CL (from UniProt B5ME19 1-914) | binds |
| Ras GTPase-activating protein-binding protein 1 (from UniProt Q13283 1-466) | binds |
| Trinucleotide repeat-containing gene 6A (from UniProt Q8NDV7 1-1962) | binds |
| Trinucleotide repeat-containing gene 6B (from UniProt Q9UPQ9 1-1833) | binds |
| UBAP2L (from UniProt Q14157 1-1087) | binds |

Now from value to molecule:

| binding | Molecule |
| --- | --- |
| binds | DDX3X (from UniProt O00571 1-662) |
| binds | Microtubule Associated Protein 4 (from UniProt P27816 1-1152) |
| binds | PRRC2C (from UniProt Q9Y520 1-2896) |
| binds | Metadherin (protein, UniProt Q86UE4 1-582) MAARSWQDELAQQAEEGSARLREMLSVGLGFLRTELGLDLGLEPKRYPGWVILVGTGALGLLLLFLLGYGWAAACAGARKKRRSPPRKREEAAAVPAAAPDDLALLKNLRSEEQKKKNRKKLSEKPKPNGRTVEVAEGEAVRTPQSVTAKQPPEIDKKNEKSKKNKKKSKSDAKAVQNSSRHDGKEVDEGAWETKISHREKRQQRKRDKVLTDSGSLDSTIPGIENTITVTTEQLTTASFPVGSKKNKGDSHLNVQVSNFKSGKGDSTLQVSSGLNENLTVNGGGWNEKSVKLSSQISAGEEKWNSVSPASAGKRKTEPSAWSQDTGDANTNGKDWGRSWSDRSIFSGIGSTAEPVSQSTTSDYQWDVSRNQPYIDDEWSGLNGLSSADPNSDWNAPAEEWGNWVDEERASLLKSQEPIPDDQKVSDDDKEKGEGALPTGKSKKKKKKKKKQGEDNSTAQDTEELEKEIREDLPVNTSKTRPKQEKAFSLKTISTSDPAEVLVKNSQPIKTLPPATSTEPSVILSKSDSDKSSSQVPPILQETDKSKSNTKQNSVPPSQTKSETSWESPKQIKKKKKARRET |
